In article PMC7585118:
No constants are given. Whether binding was seen depends on the method and setting. Binding seen in cells or lysates may run through a third protein. Some binding calls cover weakened binding; strength is not graded here.

Protein sequences, listed by entry. Tags and fused reporters are not part of them.
UniProt Q96P20: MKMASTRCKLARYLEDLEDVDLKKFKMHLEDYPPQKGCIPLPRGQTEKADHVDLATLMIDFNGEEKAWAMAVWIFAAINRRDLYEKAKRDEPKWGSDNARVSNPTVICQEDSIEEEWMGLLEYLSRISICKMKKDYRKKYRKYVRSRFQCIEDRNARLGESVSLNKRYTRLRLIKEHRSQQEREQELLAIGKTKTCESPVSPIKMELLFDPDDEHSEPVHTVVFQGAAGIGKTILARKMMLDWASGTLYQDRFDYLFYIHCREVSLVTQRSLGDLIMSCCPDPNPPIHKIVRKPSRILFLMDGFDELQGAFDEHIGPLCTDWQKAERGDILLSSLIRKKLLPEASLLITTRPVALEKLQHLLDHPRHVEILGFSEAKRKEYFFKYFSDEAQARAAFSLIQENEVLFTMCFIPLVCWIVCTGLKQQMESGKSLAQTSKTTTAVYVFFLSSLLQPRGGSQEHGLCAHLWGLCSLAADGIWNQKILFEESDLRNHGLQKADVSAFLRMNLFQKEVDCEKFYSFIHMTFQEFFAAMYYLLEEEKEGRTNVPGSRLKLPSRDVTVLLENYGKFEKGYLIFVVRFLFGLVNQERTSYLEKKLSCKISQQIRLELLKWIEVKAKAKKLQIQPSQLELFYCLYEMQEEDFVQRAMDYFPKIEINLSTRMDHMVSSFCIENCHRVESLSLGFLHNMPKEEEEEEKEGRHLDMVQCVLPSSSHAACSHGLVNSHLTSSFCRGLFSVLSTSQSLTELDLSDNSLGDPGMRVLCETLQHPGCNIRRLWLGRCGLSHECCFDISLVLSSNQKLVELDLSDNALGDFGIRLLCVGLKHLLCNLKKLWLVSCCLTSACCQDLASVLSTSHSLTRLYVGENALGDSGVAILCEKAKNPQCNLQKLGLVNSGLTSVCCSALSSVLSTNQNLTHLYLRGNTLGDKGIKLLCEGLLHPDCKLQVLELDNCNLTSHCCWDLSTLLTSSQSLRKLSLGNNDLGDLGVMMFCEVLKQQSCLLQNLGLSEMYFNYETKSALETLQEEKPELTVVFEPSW

Biological target: NLRP3 (human (endogenous in THP-1)) (UniProt Q96P20)
Assay: co-IP; endogenous proteins in THP-1 cells primed with LPS 4 h and stimulated with ATP 30 min (with or without GPA 6 h before ATP); cells lysed in IP buffer, IP-grade antibodies, protein A/G beads, immunoblot

B1: GSDMD (protein, UniProt P57764 1-484)
chain: MGSAFERVVRRVVQELDHGGEFIPVTSLQSSTGFQPYCLVVRKPSSSWFWKPRYKCVNLSIKDILEPDAAEPDVQRGRSFHFYDAMDGQIQGSVELAAPGQAKIAGGAAVSDSSSTSMNVYSLSVDPNTWQTLLHERHLRQPEHKVLQQLRSRGDNVYVVTEVLQTQKEVEVTRTHKREGSGRFSLPGATCLQGEGQGHLSQKKTVTIPSGSTLAFRVAQLVIDSDLDVLLFPDKKQRTFQPPATGHKRSTSEGAWPQLPSGLSMMRCLHNFLTDGVPAEGAFTEDFQGLRAEVETISKELELLDRELCQLLLEGLEGVLRDQLALRALEEALEQGQSLGPVEPLDGPAGAVLECLVLSSGMLVPELAIPVVYLLGALTMLSETQHKLLAEALESQTLLGPLELVGSLLEQSAPWQERSTMSLPPGLLGNSWGEGAPAWVLLDECGLELGEDTPHVCWEPQAQGRMCALYASLALLSGLSQEPH
In the case of B1, the binding is reported as “binds”.
